Measured values published in US20220202851A1, “BIODEGRADABLE POLYESTERAMIDE USED FOR THE TREATMENT OF ARTHRITIC DISORDERS” (DSM IP Assets B.V., priority 2014, published 2022).
At least one compound was matched to its structure with a doubt left.

Test system: OA chondrocytes
Assay: PGE-2 production by TNF-alpha stimulated OA chondrocytes (ELISA)
Assay type: cell-based, human
Details: constant concentration 0.1 μM

Q: How did the “PGE-2 production from chondrocytes” value turn out when `CC1(C)O[C@@H]2C[C@H]3[C@@H]4CCC5=CC(=O)C=C[C@]5(C)[C@@]4(F)[C@@H](O)C[C@]3(C)[C@]2(C(=O)CO)O1` [TAA, Triamcinolone acetonide] was run?
A: The value was “stops the production of PGE-2”.
